Experimental findings from article PMC10897318 are described below.

Protein sequences, listed by entry. Tags and fused reporters are not part of them.
UniProt Q15370: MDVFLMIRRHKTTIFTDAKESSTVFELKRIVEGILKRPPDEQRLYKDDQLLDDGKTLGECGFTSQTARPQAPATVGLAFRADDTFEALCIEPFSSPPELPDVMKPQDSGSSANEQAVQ

In the experiment the target is T1, ZSWIM4-Myc (Myc-tagged human Zinc Finger SWIM-Type Containing 4) (human) (UniProt Q9H7M6).
T1 sequence: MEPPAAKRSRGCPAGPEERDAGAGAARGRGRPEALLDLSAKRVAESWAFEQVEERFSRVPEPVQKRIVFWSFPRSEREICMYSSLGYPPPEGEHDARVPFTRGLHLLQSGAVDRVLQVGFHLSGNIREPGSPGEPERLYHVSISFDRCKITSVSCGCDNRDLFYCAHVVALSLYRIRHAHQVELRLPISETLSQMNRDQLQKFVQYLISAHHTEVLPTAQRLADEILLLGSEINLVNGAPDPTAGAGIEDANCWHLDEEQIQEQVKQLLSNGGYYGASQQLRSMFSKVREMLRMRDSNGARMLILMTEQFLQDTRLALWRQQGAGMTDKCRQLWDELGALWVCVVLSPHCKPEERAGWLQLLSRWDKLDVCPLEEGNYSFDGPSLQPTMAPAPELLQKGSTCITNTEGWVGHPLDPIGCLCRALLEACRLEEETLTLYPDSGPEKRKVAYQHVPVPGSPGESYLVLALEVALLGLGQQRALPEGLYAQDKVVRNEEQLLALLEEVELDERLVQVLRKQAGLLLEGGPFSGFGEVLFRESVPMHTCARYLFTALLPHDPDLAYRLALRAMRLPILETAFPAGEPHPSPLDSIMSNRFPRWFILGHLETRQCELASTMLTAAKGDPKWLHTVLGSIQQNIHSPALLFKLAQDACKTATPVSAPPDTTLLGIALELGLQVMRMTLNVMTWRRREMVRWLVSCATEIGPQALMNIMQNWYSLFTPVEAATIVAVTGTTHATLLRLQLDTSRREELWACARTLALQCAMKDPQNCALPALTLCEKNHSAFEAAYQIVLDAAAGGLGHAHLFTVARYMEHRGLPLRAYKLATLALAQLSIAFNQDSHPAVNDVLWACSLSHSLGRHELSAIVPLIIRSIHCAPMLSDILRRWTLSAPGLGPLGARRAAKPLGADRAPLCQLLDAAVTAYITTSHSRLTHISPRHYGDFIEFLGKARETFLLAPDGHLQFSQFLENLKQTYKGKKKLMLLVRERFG
Nature of the experiment: co-IP; wild-type ZSWIM4 or ΔN with ELOB (Figure 6H) or ELOC (Figure 6I); cells, tags and antibodies not given.

No constants are given. Whether binding was seen depends on the method and setting. Binding seen in cells or lysates may run through a third protein. Some results given as binding are weak or reduced against the parent protein; the word gives no strength. Where a sequence is shown, tags or fusion partners need not be part of it.

Consider “ELOB (construct of Figure 6H) (from UniProt Q15370 1-118)”, for which the binding entry is listed as “binds”.
